PubChem BioAssay AID493246 | Drosophila RNAi Screening Center | 2011
In all, the deposit lists about 21,000 reagents; this is an unselected part of those that have a named target and a result. Of all reagents, 429 (2%) were called active. 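Values are raw and not normalised between plates; calls rest on per-plate z-scores that were not deposited.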 The record does not give: the amount of reagent, the time to read-out.

Aim: 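Genes fly cells need to grow and stay alive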 (primary screen)
Cells: Drosophila Kc and S2R+ cells
Reagents: long dsRNA against Drosophila genes
Measurement: 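Cell number per well after knock-down, printed as raw plate values; calls were based on per-plate z-scores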
Direction: Kc cell number and S2R+ cell number: higher = more cells remaining
Hit rule: 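Counted as a hit if cell number falls by a z-score of at least 3 within its plate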

Efhc1.1 [DRSC20135]
- Kc cell number, rep 1: 1.39e6
- Kc cell number, rep 2: 1.40e6
- S2R+ cell number, rep 1: 1.06e6
- S2R+ cell number, rep 2: 1.13e6
- activity call: inactive

row [DRSC07076]
- Kc cell number, rep 1: 1.06e6
- Kc cell number, rep 2: 1.21e6
- S2R+ cell number, rep 1: 4.88e5
- S2R+ cell number, rep 2: 5.01e5
- activity call: active

row [DRSC07077]
- Kc cell number, rep 1: 1.76e6
- Kc cell number, rep 2: 1.83e6
- S2R+ cell number, rep 1: 1.16e6
- S2R+ cell number, rep 2: 1.31e6
- activity call: inactive

Vps8 [DRSC09705]
- Kc cell number, rep 1: 1.26e6
- Kc cell number, rep 2: 1.22e6
- S2R+ cell number, rep 1: 1.12e6
- S2R+ cell number, rep 2: 1.19e6
- activity call: inactive

CG14495 [DRSC06466]
- Kc cell number, rep 1: 1.50e6
- Kc cell number, rep 2: 1.53e6
- S2R+ cell number, rep 1: 1.16e6
- S2R+ cell number, rep 2: 1.25e6
- activity call: inactive

CG14710 [DRSC14933]
- Kc cell number, rep 1: 1.52e6
- Kc cell number, rep 2: 1.59e6
- S2R+ cell number, rep 1: 1.16e6
- S2R+ cell number, rep 2: 1.19e6
- activity call: inactive

nmd [DRSC02856]
- Kc cell number, rep 1: 1.50e6
- Kc cell number, rep 2: 1.59e6
- S2R+ cell number, rep 1: 1.29e6
- S2R+ cell number, rep 2: 1.25e6
- activity call: inactive

ImpE3 [DRSC16716]
- Kc cell number, rep 1: 1.43e6
- Kc cell number, rep 2: 1.60e6
- S2R+ cell number, rep 1: 1.27e6
- S2R+ cell number, rep 2: 1.33e6
- activity call: inactive

Prosbeta2R2 [DRSC12193]
- Kc cell number, rep 1: 1.64e6
- Kc cell number, rep 2: 1.86e6
- S2R+ cell number, rep 1: 1.23e6
- S2R+ cell number, rep 2: 1.33e6
- activity call: inactive

RpL3 [DRSC16834]
- Kc cell number, rep 1: 9.83e5
- Kc cell number, rep 2: 9.78e5
- S2R+ cell number, rep 1: 6.42e5
- S2R+ cell number, rep 2: 7.59e5
- activity call: active

2 neighbouring reagents already listed, quoted:
Vps8 [DRSC09705]
- Kc cell number, rep 1: 1.26e6
- Kc cell number, rep 2: 1.22e6
- S2R+ cell number, rep 1: 1.12e6
- S2R+ cell number, rep 2: 1.19e6
- activity call: inactive

CG14495 [DRSC06466]
- Kc cell number, rep 1: 1.50e6
- Kc cell number, rep 2: 1.53e6
- S2R+ cell number, rep 1: 1.16e6
- S2R+ cell number, rep 2: 1.25e6
- activity call: inactive

The listing continues:
CG9752 [DRSC04562]
- Kc cell number, rep 1: 1.25e6
- Kc cell number, rep 2: 1.30e6
- S2R+ cell number, rep 1: 1.16e6
- S2R+ cell number, rep 2: 1.15e6
- activity call: inactive

CG18128 [DRSC04304]
- Kc cell number, rep 1: 1.56e6
- Kc cell number, rep 2: 1.63e6
- S2R+ cell number, rep 1: 1.37e6
- S2R+ cell number, rep 2: 1.47e6
- activity call: inactive

Mhcl [DRSC13130]
- Kc cell number, rep 1: 1.51e6
- Kc cell number, rep 2: 1.66e6
- S2R+ cell number, rep 1: 1.10e6
- S2R+ cell number, rep 2: 1.15e6
- activity call: inactive

Mhcl [DRSC14216]
- Kc cell number, rep 1: 1.32e6
- Kc cell number, rep 2: 1.48e6
- S2R+ cell number, rep 1: 1.22e6
- S2R+ cell number, rep 2: 1.34e6
- activity call: inactive

Mhcl [DRSC16753]
- Kc cell number, rep 1: 1.20e6
- Kc cell number, rep 2: 1.28e6
- S2R+ cell number, rep 1: 1.23e6
- S2R+ cell number, rep 2: 1.38e6
- activity call: inactive

Kank [DRSC05513]
- Kc cell number, rep 1: 1.48e6
- Kc cell number, rep 2: 1.46e6
- S2R+ cell number, rep 1: 9.99e5
- S2R+ cell number, rep 2: 1.13e6
- activity call: inactive

Kank [DRSC05933]
- Kc cell number, rep 1: 1.39e6
- Kc cell number, rep 2: 1.43e6
- S2R+ cell number, rep 1: 9.78e5
- S2R+ cell number, rep 2: 9.53e5
- activity call: inactive

CG4570 [DRSC15602]
- Kc cell number, rep 1: 1.38e6
- Kc cell number, rep 2: 1.40e6
- S2R+ cell number, rep 1: 1.27e6
- S2R+ cell number, rep 2: 1.35e6
- activity call: inactive

CG14292 [DRSC14772]
- Kc cell number, rep 1: 1.35e6
- Kc cell number, rep 2: 1.31e6
- S2R+ cell number, rep 1: 9.46e5
- S2R+ cell number, rep 2: 1.06e6
- activity call: inactive

CG13532 [DRSC04174]
- Kc cell number, rep 1: 1.58e6
- Kc cell number, rep 2: 1.66e6
- S2R+ cell number, rep 1: 1.30e6
- S2R+ cell number, rep 2: 1.40e6
- activity call: inactive

CG11975 [DRSC14452]
- Kc cell number, rep 1: 1.64e6
- Kc cell number, rep 2: 1.80e6
- S2R+ cell number, rep 1: 1.21e6
- S2R+ cell number, rep 2: 1.25e6
- activity call: inactive
